Data reported in PubChem BioAssay AID1439 (NMMLSC, 2008).
The campaign covered roughly 220,000 compounds. About 770 (0.35%) were called active. Inconclusive means that the source gave no clear call. Such entries were picked first, then a sample of the others. No stated cut-off is given here; in the data, active means binding response below about 49% or above about 150%; inconclusive means no clear call, values can overlap the other calls; inactive means in between.

Sequences of proteins named here, by UniProt entry; tags and fusion partners are left off.
UniProt P09471, whole entry, looked up: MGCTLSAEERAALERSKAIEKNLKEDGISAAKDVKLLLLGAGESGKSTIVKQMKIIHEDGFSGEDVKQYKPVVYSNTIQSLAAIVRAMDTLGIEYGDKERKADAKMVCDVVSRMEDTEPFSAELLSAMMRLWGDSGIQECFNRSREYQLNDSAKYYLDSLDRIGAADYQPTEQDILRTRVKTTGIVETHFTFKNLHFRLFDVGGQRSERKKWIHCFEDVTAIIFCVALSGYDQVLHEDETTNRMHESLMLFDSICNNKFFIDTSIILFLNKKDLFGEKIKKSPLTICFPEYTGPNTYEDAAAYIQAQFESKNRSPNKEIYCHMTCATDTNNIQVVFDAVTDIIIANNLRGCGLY

What follows are molecules tested against Guanine nucleotide-binding protein G(o) subunit alpha (Homo sapiens) (UniProt P09471) (assay: RGS7-Galphao binding modulators, primary screen, biochemical, multiplexed bead flow cytometry (AID 1439;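 further: fluorescent Galphao held in activated GDP-AlF4 state binding bead-coupled RGS7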)). Conditions: at 10 µM, actives lie on both sides.

Row | SMILES | binding response (% of control)
1 | Cc1cc(C)c(NC(=O)CN2C(=O)NC(Cc3ccccc3)C2=O)c(C)c1 (stereo not drawn) | inconclusive: 112%
2 | CCOC(=O)COc1cccc2c(=O)n(CC(=O)NCc3ccc(F)cc3)ccc12 | inconclusive: 107%
3 | CC(=O)Nc1ccc(C(=O)N2CC(=O)NC(=O)C2)cc1 | inconclusive: 106%
4 | Cc1ccsc1/C=N/N1CCN(c2ccccn2)CC1 | inconclusive: 13.2%
5 | COC(=O)c1cc(NC(=O)c2c(-c3c(Cl)cccc3Cl)noc2C)ccc1N1CCOCC1 | inconclusive: 44.5%
6 | COCCN=C1OC(=O)N2C(=O)C3=C4[C@@H](C[C@H]5C(=O)N(c6ccccc6)C(=O)[C@H]5[C@H]4[C@@]12Cc1ccccc1)[C@H]1C(=O)N(c2ccccc2)C(=O)[C@H]1[C@H]3C | inconclusive: 109%
7 | Cc1ccc(C(=O)N[C@@H](C)CN2C3=NC[C@H](C)N3C[C@H]2Cc2ccc(O)cc2)cc1Br | inconclusive: 103%
8 | COc1ccc2c(c1)NC(c1ccc(N(C)C)cc1)c1cccn1-2 (stereo not drawn) | inconclusive: 74.4%
9 | Cc1ccccc1NC(=O)COC(=O)c1c[nH]c(=O)[nH]c1=O | inconclusive: 112%
10 | CCc1cccc(C)c1NC(=S)N(Cc1cccnc1)Cc1ccco1 | inactive: 98.4%
11 | CCc1nnc(NC(=O)c2cc(-c3ccccn3)nc3ccccc23)s1 | inconclusive: 88.3%
12 | CCCCn1nnc(NC(=O)c2cc3ccccc3o2)n1 | inactive: 127%
13 | Oc1ccc(-c2nc3ccccc3s2)c(O)c1 | inconclusive: 79.2%
14 | Nc1ccc(Oc2ccccc2F)nc1 | inconclusive: 123%
15 | Oc1ccc(/C=N/NC(=S)NC2CC3CCC2C3)cc1 (stereo not drawn) | inconclusive: 63.7%
16 | CSC1=NC2(C)CCCCC2C12C=CC(=O)C=C2 (stereo not drawn) | inconclusive: 109%
17 | O=C(c1ccc(N2CCOCC2)c([N+](=O)[O-])c1)N1CCN(S(=O)(=O)c2cccs2)CC1 | inconclusive: 32.6%
18 | N#CC(C#N)=Cc1ccccc1OCc1ccccc1 | inconclusive: 106%
19 | Cc1cc(F)ccc1S(=O)(=O)Nc1ccccc1C(=O)NCc1ccccn1 | inconclusive: 100%
20 | Cc1csc2ncc(C(=O)NCCC(c3ccccc3)c3ccccc3)c(=O)n12 | inconclusive: 79.2%
21 | N#C/C(=C\c1c(N2CCOCC2)nc2ccccn2c1=O)C(=O)NC1CCS(=O)(=O)C1 (stereo not drawn) | inconclusive: 113%
22 | COC(=O)c1cnc(Oc2ccc(NC(=O)NC(=O)c3c(F)cccc3Cl)cc2)cc1C(F)(F)F | inconclusive: 81%

A different layout for part of the listing above:
Row,SMILES,binding response (% of control)
13,Oc1ccc(-c2nc3ccccc3s2)c(O)c1,inconclusive: 79.2%
14,Nc1ccc(Oc2ccccc2F)nc1,inconclusive: 123%
15,Oc1ccc(/C=N/NC(=S)NC2CC3CCC2C3)cc1 (stereo not drawn),inconclusive: 63.7%
16,CSC1=NC2(C)CCCCC2C12C=CC(=O)C=C2 (stereo not drawn),inconclusive: 109%

(further entries)

Row | SMILES | binding response (% of control)
23 | Cc1ccc(/C=N/n2c(C)nc3ccccc3c2=O)s1 | inconclusive: 101%
24 | CC(C)C(NC(=O)c1ccccc1F)C(=O)Nc1nccs1 (stereo not drawn) | inactive: 109%
25 | Cn1c(NC(=O)c2ccc(F)cc2)c(-c2ccccn2)c(=O)c2ccccc21 | inconclusive: -566%
26 | COc1cc(/C=C(/C#N)C(=O)c2c(C)[nH]c3ccccc23)ccc1OCC#N | inconclusive: 120%
27 | COc1cccc2cc(-c3csc(NC(=O)CCC(=O)NCCCN4CCC(C)CC4)n3)c(=O)oc12 | inconclusive: 107%
28 | COc1ccc(C(=O)NCCCn2ccnc2)cc1[N+](=O)[O-] | inconclusive: 110%
29 | Cc1ccc(C)c(NC(=O)CN(C)S(=O)(=O)c2cccc3cccnc23)c1 | inconclusive: 127%
30 | O=C(CNCc1ccncc1)Nc1cc(S(=O)(=O)N2CCCCC2)ccc1Cl | inconclusive: 259%
31 | O=C(Nc1ccc2c(c1)OCCO2)Nc1ccc2c(c1)OCO2 | inactive: 98.2%
32 | COc1ccc(OC)c(NC(=O)COC(=O)CN(C)S(=O)(=O)c2ccc(C)cc2)c1 | inactive: 102%
33 | O=C(c1sccc1Cl)N1CCN(Cc2ccc3c(c2)OCO3)CC1 | inconclusive: 51.3%
34 | COc1ccc(CC(=O)N2N=C(c3ccncc3)CC2(O)C(F)(F)F)cc1 (stereo not drawn) | inconclusive: 78.5%
35 | COc1ccc(S(=O)(=O)N(CC(=O)NCc2cccnc2)C2CCCCC2)cc1OC | inconclusive: 49.3%
36 | O=C(CSc1nccc(=O)[nH]1)c1cc2ccccc2o1 | inconclusive: 15.9%
37 | COc1ccc(CCNC(=O)/C=C/c2ccc(C)cc2)cc1OC | inactive: 101%
38 | Cc1onc(NC(=O)c2ccc(Cl)cc2Cl)c1Br | inactive: 104%
39 | O=C(O)c1ccccc1C(=O)NCCc1c(C(=O)O)[nH]c2ccc(F)cc12 | inconclusive: 97%
40 | Cn1nc(C(F)(F)F)c(-c2ccc(Br)cc2)c1NC(=O)c1ccco1 | inconclusive: 51.2%
41 | O=C(COC(=O)c1ccc([N+](=O)[O-])o1)Nc1nc2ccccc2s1 | inconclusive: 85.9%
42 | c1ccc(-c2cc(-c3ccccc3)on2)cc1 | inconclusive: 88.7%
43 | CC1(C)Cc2c(sc3c2c(=O)n(-c2ccc(Cl)cc2)c(=O)n3CC(N)=O)CO1 | inconclusive: 121%
44 | CCOc1ccc(Cl)cc1CNc1nnnn1C | inconclusive: 96.3%

Row | SMILES | binding response (% of control)
45 | COc1cc(/C=C/C(=O)OCC(=O)NCc2ccco2)ccc1OCC#N | inconclusive: 89.6%
46 | O=C(NCc1cccs1)C1CCCN1C(=O)Nc1ccc(F)cc1 (stereo not drawn) | inconclusive: 105%
47 | CN(CCO)C(=O)C(c1ccccc1)c1ccccc1 | inconclusive: 91%
48 | C/C(CC(=O)Nc1cccnc1)=N\NC(=O)C(=O)NC(C)C | inconclusive: 118%
49 | COc1ccccc1NCC(=O)N/N=C(\C)c1cccs1 | inactive: 99.8%
50 | COc1cc(OC)c2c(-c3ccccc3)cc(=O)oc2c1C(CC(=O)N1CCN(c2ccccc2)CC1)c1ccc(N(C)C)cc1 (stereo not drawn) | inconclusive: 96.5%
51 | CC(C)c1nnc(NC(=O)c2cccc(NC(=O)C(F)(F)F)c2)s1 | inconclusive: 93.9%
52 | C/C(=N/NS(=O)(=O)c1ccc(C)cc1)c1c(O)c2ccccc2oc1=O | inconclusive: 110%
53 | O=S(=O)(CCN1C=CC(C(F)(F)F)=NCC1)c1ccc(Cl)cc1Cl | inconclusive: 123%
54 | O=C(O)CC1(CC(=O)NCc2ccncc2)CCCCC1 | inconclusive: 93.6%
55 | COc1ccccc1C(O)P(=O)(OC1CCCCC1)OC1CCCCC1 (stereo not drawn) | inconclusive: 117%
56 | Fc1ccccc1-c1nc(-c2cnccc2C(F)(F)F)no1 | inconclusive: 78.2%
57 | COc1ccc(/C=C\C(=O)NCC(=O)N/N=C/c2ccc(O)cc2O)cc1 | inconclusive: 118%
58 | O=[N+]([O-])C(=C1SCCS1)C(=C(Cl)Cl)N1CCCCC1 | inactive: 99.8%
59 | Cc1ccc(NC(=S)Nc2ccc(S(=O)(=O)Nc3ncccn3)cc2)cc1Cl | inconclusive: 220%
60 | COc1ccc2ccccc2c1/C=N/NC(=S)NCCN1CCOCC1 | inconclusive: 94.9%
61 | CCOc1cc(N2CCOCC2)c(OCC)cc1NC(C)C(=O)N1CCN(CC)CC1 (stereo not drawn) | inconclusive: 95%
62 | Fc1cccc(/C=N/Nc2ccc3ccccc3n2)c1 | inconclusive: 96.9%
63 | Cc1sc(NC(=O)C2C3C=CC(C3)C2C(=O)O)c(C(N)=O)c1-c1ccc(C(C)C)cc1 (stereo not drawn) | inactive: 95.4%
64 | Cc1ccc2cc(CN(C(=O)c3ccco3)c3cccc(C)c3C)c(=O)[nH]c2c1 | inconclusive: 119%
65 | COc1ccccc1-c1c(C#N)c(N)nc2c1CCC2 | inconclusive: 91.2%
66 | CCCCC(=O)NNC(=O)CC(=O)Nc1ccccc1C(=O)O | inconclusive: 23.4%

Row | SMILES | binding response (% of control)
67 | Cc1ccc(C(=O)Nc2nn(C)c3cccc(F)c23)cc1 | inconclusive: 88%
68 | Cc1ccc(-c2nn(CC(=O)N3CCOCC3)c(=O)c3ccccc23)cc1S(=O)(=O)N(C)C | inconclusive: 529%
69 | Fc1ccc(CSc2nnc(-c3ccco3)o2)cc1 | inconclusive: 132%
70 | Cc1cccc(C)c1NC(=O)CS(=O)CC(=O)NCC1OCCc2ccccc21 (stereo not drawn) | inactive: 108%
71 | O=C(CSc1nnc(-c2ccncc2)n1Cc1ccccc1)NC1CCCCC1 | inconclusive: 106%
72 | CCc1nnc(NC(=O)C2CCC(CNc3c(N4CCCCC4)c(=O)c3=O)CC2)s1 (stereo not drawn) | inconclusive: 111%
73 | CC(C)(C)c1csc(NC(=O)Cc2cccs2)n1 | inconclusive: 102%
74 | COc1ccc(NC(=O)CCCSc2ccccc2)cc1 | inconclusive: 109%
75 | O=C(NNC1=NCCN1Cc1ccccc1)c1cccc(C(F)(F)F)c1 | inconclusive: 78.2%
76 | COc1ccccc1NC(=O)Cc1noc(CSc2n[nH]c(N)n2)n1 | inconclusive: 100%
77 | O=C(CSc1ncnc2scc(-c3ccccc3)c12)NC1CCS(=O)(=O)C1 (stereo not drawn) | inconclusive: 161%
78 | C=C(C)C(=O)Nc1cccc(C2=NOC3(C2)C[C@H](C(N)=O)N(C(=O)c2ccccc2C(=O)c2ccccc2)C3)c1 (stereo partly drawn) | inconclusive: 98.3%
79 | COC(=O)CC1C(=O)NCCN1C(=O)CSc1nnnn1-c1ccc(OC)cc1 (stereo not drawn) | inactive: 98.2%
80 | O=C(Nc1ccc(Cl)cc1)NC1CCCCNC1=O (stereo not drawn) | inconclusive: 84.2%
81 | CC(C)[C@H](NC(=O)NC1CCN(Cc2ccccc2)CC1)C(=O)O | inconclusive: 110%
82 | COC(=O)CNC(=O)Cn1nc(C)c([N+](=O)[O-])c1C | inconclusive: 99.2%
83 | Cc1cc(=O)oc2cc(OCC(=O)Nc3ccc(S(=O)(=O)N(C)C)cc3)ccc12 | inconclusive: 46%
84 | CC(C)CC(NC(N)=O)C(=O)Nc1ccc(Oc2ccccc2)cc1 (stereo not drawn) | inactive: 93.3%
85 | COc1cc(CCC(=O)NNC(=O)c2ccc(C)cc2)cc(OC)c1OC | inconclusive: 88.7%
86 | Cc1cc(C)c2c(c1)/C(=N\N=c1\sc3ccccc3n1C)C(=O)N2 | inconclusive: 103%
87 | Cc1ccc(C(=O)NNc2ncnc3ccccc23)cc1 | inconclusive: 56.5%
88 | O=C(NCc1cccnc1)C(=O)Nc1nccs1 | inconclusive: 97.6%
